The values that follow come from the supplement of paper PMC12067093, “Discovery and optimisation of a covalent ligand for TRIM25 and its application to targeted protein ubiquitination” (Chemical Science, 2025).

Chains of the proteins cited; added tags and fusions are not shown. Lines headed by an entry give the natural chain unless they say otherwise; changes in a name come on top.
UniProt Q7Z6Z7, whole entry, looked up: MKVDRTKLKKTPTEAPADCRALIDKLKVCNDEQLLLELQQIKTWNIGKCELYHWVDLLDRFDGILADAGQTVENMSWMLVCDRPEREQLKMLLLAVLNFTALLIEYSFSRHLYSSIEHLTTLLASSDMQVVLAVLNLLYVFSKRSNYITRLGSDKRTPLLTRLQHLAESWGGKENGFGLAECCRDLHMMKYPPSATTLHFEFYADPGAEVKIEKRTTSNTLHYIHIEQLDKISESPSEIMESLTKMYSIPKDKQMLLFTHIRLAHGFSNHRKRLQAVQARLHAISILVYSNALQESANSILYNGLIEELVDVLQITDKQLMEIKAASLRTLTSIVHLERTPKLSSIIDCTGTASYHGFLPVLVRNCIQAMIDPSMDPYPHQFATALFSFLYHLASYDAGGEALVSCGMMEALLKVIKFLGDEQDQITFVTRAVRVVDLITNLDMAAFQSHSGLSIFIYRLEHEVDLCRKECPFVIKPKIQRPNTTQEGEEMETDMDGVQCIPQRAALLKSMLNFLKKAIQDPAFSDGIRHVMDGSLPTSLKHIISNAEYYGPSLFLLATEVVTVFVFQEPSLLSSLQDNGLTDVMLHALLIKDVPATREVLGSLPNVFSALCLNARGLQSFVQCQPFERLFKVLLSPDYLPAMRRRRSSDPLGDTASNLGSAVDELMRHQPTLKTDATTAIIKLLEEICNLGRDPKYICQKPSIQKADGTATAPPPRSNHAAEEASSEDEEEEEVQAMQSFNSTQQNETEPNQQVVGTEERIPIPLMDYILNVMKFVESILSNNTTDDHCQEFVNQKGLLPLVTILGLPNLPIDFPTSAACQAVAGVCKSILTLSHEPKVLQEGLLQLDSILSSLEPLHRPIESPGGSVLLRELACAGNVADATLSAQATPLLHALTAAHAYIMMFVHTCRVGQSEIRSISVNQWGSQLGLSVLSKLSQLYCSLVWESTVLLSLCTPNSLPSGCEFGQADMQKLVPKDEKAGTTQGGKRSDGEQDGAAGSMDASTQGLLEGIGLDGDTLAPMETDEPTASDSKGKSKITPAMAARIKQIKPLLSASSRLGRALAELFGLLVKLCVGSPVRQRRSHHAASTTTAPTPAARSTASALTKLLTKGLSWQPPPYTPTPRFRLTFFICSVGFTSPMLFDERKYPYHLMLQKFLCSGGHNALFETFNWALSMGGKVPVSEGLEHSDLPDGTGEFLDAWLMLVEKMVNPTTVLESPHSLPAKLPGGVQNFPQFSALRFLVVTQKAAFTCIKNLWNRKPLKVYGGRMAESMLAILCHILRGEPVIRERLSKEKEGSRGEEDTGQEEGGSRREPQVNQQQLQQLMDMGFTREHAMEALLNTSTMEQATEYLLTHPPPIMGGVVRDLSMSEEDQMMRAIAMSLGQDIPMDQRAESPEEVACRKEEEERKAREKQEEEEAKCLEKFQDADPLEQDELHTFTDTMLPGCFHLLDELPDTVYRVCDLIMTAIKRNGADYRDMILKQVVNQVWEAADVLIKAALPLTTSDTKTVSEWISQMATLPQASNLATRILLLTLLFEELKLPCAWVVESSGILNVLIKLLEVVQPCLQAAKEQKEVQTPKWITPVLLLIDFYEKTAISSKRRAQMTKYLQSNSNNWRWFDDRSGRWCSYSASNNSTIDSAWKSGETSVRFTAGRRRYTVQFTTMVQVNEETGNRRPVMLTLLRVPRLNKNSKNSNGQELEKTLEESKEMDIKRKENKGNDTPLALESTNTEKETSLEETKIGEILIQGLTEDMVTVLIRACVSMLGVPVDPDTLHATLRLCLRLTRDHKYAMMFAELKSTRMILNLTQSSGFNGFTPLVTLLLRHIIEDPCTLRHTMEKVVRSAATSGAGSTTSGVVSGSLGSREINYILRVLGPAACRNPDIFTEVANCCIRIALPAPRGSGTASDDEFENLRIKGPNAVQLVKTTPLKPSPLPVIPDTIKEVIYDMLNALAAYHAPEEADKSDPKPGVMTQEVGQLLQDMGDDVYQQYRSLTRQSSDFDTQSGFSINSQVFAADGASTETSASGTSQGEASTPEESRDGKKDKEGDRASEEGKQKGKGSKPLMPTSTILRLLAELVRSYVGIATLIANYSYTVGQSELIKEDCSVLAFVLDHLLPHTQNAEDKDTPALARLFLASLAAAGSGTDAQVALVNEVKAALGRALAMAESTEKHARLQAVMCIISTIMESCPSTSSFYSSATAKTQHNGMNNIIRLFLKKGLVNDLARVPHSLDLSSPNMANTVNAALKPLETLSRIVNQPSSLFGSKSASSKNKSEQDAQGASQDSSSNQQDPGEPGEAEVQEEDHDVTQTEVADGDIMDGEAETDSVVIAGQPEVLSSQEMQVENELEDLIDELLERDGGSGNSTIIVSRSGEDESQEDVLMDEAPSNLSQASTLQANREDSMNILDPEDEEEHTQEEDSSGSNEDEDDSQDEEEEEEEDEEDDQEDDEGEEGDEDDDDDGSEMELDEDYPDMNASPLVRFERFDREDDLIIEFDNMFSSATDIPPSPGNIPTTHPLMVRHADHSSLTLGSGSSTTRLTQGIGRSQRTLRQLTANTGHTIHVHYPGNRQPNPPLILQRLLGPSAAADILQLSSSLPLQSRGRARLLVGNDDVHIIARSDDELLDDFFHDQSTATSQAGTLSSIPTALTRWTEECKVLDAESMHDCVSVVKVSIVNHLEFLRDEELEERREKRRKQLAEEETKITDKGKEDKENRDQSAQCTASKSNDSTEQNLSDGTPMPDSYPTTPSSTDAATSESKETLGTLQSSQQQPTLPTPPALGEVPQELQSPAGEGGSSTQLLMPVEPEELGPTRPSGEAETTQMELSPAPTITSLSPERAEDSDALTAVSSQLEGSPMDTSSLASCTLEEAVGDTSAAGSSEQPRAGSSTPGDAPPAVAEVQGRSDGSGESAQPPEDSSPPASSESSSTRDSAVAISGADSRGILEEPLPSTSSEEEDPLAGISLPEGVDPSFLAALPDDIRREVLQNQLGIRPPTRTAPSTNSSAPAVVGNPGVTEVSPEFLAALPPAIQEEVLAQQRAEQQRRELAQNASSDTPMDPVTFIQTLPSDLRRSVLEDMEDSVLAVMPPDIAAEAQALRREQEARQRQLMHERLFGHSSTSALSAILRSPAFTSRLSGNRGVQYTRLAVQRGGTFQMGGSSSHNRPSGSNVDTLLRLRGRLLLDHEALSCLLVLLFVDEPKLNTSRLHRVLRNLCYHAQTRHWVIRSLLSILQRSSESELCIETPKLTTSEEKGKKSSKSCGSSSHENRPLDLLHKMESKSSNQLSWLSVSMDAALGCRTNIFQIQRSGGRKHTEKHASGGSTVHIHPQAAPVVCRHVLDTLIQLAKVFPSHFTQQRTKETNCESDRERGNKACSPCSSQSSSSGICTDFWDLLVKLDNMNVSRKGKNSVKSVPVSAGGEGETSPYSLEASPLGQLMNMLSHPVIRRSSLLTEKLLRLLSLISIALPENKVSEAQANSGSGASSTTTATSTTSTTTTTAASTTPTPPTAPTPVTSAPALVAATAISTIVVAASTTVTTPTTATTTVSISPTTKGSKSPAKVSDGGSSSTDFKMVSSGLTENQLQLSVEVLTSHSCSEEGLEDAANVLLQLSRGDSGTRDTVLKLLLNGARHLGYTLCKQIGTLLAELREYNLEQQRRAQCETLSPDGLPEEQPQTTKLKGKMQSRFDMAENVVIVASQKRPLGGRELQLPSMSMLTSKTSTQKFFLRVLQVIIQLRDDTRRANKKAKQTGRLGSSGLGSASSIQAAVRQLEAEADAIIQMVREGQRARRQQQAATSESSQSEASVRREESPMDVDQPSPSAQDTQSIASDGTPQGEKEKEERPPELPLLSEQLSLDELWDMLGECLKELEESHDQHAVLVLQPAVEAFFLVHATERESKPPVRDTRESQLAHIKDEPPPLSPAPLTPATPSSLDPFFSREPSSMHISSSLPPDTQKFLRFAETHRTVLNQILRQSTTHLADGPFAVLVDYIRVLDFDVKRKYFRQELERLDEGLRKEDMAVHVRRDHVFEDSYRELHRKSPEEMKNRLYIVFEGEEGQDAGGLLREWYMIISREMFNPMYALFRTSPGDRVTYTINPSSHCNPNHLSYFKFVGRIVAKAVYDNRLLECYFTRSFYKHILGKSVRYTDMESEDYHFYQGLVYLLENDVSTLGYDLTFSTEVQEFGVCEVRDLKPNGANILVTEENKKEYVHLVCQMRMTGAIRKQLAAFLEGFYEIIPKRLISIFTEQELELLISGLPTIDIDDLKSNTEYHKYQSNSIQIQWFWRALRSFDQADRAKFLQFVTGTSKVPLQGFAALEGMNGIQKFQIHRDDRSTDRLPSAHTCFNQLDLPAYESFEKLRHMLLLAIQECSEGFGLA
UniProt Q9HBG6: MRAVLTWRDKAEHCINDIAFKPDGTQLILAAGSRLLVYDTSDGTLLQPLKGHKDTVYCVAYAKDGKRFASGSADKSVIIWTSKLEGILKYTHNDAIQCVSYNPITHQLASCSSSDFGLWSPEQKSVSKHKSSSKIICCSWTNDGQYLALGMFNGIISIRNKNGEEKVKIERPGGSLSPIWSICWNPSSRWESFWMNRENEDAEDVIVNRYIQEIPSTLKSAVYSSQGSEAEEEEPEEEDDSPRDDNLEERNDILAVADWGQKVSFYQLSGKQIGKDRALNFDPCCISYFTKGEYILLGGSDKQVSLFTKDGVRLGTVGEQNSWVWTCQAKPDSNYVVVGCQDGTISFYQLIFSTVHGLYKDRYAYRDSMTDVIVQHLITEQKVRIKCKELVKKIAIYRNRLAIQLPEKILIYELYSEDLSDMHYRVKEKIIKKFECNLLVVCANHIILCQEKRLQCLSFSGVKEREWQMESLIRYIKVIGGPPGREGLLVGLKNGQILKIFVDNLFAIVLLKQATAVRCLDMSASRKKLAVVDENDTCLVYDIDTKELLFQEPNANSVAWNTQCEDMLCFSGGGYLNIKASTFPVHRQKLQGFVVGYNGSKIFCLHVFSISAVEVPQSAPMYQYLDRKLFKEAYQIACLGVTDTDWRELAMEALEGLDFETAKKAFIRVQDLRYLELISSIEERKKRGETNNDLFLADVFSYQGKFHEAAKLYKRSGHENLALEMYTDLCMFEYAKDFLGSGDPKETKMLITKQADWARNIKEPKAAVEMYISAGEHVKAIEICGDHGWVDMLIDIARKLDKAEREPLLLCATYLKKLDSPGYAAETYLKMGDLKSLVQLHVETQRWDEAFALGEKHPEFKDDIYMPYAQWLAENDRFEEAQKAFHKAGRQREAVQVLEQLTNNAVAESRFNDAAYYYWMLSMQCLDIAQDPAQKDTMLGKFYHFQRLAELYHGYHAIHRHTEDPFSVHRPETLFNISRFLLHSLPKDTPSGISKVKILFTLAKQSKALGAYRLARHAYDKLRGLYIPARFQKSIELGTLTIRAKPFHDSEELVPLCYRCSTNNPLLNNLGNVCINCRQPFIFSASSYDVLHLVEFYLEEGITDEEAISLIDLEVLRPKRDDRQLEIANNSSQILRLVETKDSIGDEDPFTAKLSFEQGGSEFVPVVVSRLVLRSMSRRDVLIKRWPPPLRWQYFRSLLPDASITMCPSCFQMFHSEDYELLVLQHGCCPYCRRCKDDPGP
UniProt Q12906, whole entry, looked up: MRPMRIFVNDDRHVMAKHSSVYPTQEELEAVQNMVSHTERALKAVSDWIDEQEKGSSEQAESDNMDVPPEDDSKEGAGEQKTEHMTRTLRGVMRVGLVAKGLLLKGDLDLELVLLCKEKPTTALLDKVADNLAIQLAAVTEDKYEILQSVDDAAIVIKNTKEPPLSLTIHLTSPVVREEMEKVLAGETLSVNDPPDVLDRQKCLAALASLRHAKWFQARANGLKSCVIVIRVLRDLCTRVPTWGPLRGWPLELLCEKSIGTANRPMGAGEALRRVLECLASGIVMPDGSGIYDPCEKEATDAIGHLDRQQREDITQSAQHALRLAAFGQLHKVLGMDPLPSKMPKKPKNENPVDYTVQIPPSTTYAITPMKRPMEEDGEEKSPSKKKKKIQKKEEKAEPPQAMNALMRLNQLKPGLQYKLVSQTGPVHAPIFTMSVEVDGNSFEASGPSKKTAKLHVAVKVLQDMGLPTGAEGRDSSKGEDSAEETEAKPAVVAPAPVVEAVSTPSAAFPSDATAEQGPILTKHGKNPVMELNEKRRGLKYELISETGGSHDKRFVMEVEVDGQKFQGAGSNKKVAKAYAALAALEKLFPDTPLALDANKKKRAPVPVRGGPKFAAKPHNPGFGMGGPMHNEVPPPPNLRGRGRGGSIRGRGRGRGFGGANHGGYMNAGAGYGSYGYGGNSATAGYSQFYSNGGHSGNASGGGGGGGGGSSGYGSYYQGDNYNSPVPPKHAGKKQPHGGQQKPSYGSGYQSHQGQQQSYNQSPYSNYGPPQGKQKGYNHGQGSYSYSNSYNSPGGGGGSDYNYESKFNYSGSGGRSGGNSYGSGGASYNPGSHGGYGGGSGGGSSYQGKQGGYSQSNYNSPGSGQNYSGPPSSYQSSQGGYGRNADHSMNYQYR

The list shows a part of the results.

Compound in the experiment: Cc1cc(ccc1-c1ccccc1)C(=O)N1CCCN(CC1)C(=O)CCl [compound 10]
Nature of the experiment: probe-labelled cysteine peptide fold change vs DMSO (competition) (log2 fold change); higher = less target engagement (more negative = stronger competition). The conditions noted are these: THP-1, incubation time: 4 h.
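Also: competitive profiling in live THP-1 cells: cysteine peptides tagged with an iodoacetamide desthiobiotin (IA-DTB) probe, intensity after compound treatment relative to DMSO-treated cells.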

Regarding “IKZF1_Q13422_182_CHLCNYACR (UniProt Q13422)”, the “probe-labelled cysteine peptide fold change” value reads like this: (10 µM) 0.0087; (50 µM) 0.111.

For the target “INPP5D_Q92835_138_NIPLTASSCEAK (UniProt Q92835)”, the “probe-labelled cysteine peptide fold change” value is, setting by setting: (10 µM) -0.359; (50 µM) -0.355.

As for “HUWE1_Q7Z6Z7_612_EVLGSLPNVFSALCLNAR (UniProt Q7Z6Z7)”, the “probe-labelled cysteine peptide fold change” value is, setting by setting: (10 µM) 0.11; (50 µM) 0.201.

“IGFBP4_P22692_215_QCHPALDGQR (UniProt P22692)”: the “probe-labelled cysteine peptide fold change” value is, setting by setting: (10 µM) -0.796; (50 µM) -0.804.

“HUWE1_Q7Z6Z7_2106_EDCSVLAFVLDHLLPHTQNAEDK (UniProt Q7Z6Z7)”: the “probe-labelled cysteine peptide fold change” value (10 µM) stood at 0.0641 and the “probe-labelled cysteine peptide fold change” value (50 µM) was 0.115.

Turning to “INPP5B_P32019_129_ACPGFDSATR (UniProt P32019)”, the “probe-labelled cysteine peptide fold change” value runs as follows: (10 µM) -0.153; (50 µM) -0.0407.

In the case of “IFT122_Q9HBG6_519_CLDMSASR (UniProt Q9HBG6)”, the “probe-labelled cysteine peptide fold change” value reads like this: (10 µM) -0.0645; (50 µM) -0.194.

For “IDH3A_P50213_351+359_CSDFTEEICR (UniProt P50213)”, the “probe-labelled cysteine peptide fold change” value was -0.379 (10 µM) and 0.158 (50 µM).

With IKBKG_Q9Y6K9_95_EFLMCK (UniProt Q9Y6K9), the “probe-labelled cysteine peptide fold change” value was -0.0371 (10 µM) and -0.0967 (50 µM).

As to “ILF3_Q12906_278_VLECLASGIVMPDGSGIYDPCEK (UniProt Q12906)”, the “probe-labelled cysteine peptide fold change” value was found to be 0.305 (10 µM) and 0.199 (50 µM).

On to “INF2_Q27J81_971_QEEVCVIDALLADIR (UniProt Q27J81)”, for which the “probe-labelled cysteine peptide fold change” value (10 µM) is -0.0972 and the “probe-labelled cysteine peptide fold change” value (50 µM) was determined as 0.0984.

“IDH1_O75874_379_DLAACIK (UniProt O75874)”: the “probe-labelled cysteine peptide fold change” value was -0.0344 (10 µM) and -0.152 (50 µM).

Take “IMPA2_O14732_107_CVLTHSPTWIIDPIDGTCNFVHR (UniProt O14732)”: the “probe-labelled cysteine peptide fold change” value is 0.149 (10 µM) and -0.425 (50 µM).

“INPP5D_Q92835_819_SSDSDESYGEGCIALR (UniProt Q92835)”: the “probe-labelled cysteine peptide fold change” value was -0.0234 (10 µM) and 0.162 (50 µM).

With “ILF3_Q12906_295_VLECLASGIVMPDGSGIYDPCEK (UniProt Q12906)”, the “probe-labelled cysteine peptide fold change” value was found to be 0.0645 (10 µM) and 0.125 (50 µM).

Regarding “INF2_Q27J81_971_KGPGKQEEVCVIDALLADIR (UniProt Q27J81)”, the “probe-labelled cysteine peptide fold change” value by setting is: (10 µM) -0.149; (50 µM) -0.516.

On to “IDE_P14735_171_FAQFFLCPLFDESCK (UniProt P14735)”, for which the “probe-labelled cysteine peptide fold change” value was -0.0625 (10 µM) and 0.142 (50 µM).

For “INPP5D_Q92835_4_MVPCWNHGNITR (UniProt Q92835)”, the “probe-labelled cysteine peptide fold change” value (10 µM) is -0.162 and the “probe-labelled cysteine peptide fold change” value (50 µM) is -0.453.

For the target “ILVBL_A1L0T0_173_GALQAVDQLSLFRPLCK (UniProt A1L0T0)”, the “probe-labelled cysteine peptide fold change” value runs as follows: (10 µM) 0.0544; (50 µM) -0.275.

In the case of “ICAM3_P32942_423_HVLQCQAR (UniProt P32942)”, the “probe-labelled cysteine peptide fold change” value is, setting by setting: (10 µM) -0.192; (50 µM) -0.0101.

As to “INPP5D_Q92835_956_DSPLGPCR (UniProt Q92835)”, the “probe-labelled cysteine peptide fold change” value reads like this: (10 µM) -0.366; (50 µM) -0.376.

With “IL6R_P08887_121_AGRPAGTVHLLVDVPPEEPQLSCFR (UniProt P08887)”, the “probe-labelled cysteine peptide fold change” value was -0.092 (10 µM) and -0.192 (50 µM).

On to “IFI16_Q16666_679_INQLCSQTK (UniProt Q16666)”, for which the “probe-labelled cysteine peptide fold change” value is -0.116 (10 µM) and 0.16 (50 µM).

In the case of “IGF2R_P11717_84_INICGSVDIVQCGPSSAVCMHDLK (UniProt P11717)”, the “probe-labelled cysteine peptide fold change” value was 0.0168 (10 µM) and -0.227 (50 µM).

In the case of “INPP5B_P32019_678_EFCFQNVK (UniProt P32019)”, the “probe-labelled cysteine peptide fold change” value by setting is: (10 µM) 0.0158; (50 µM) 0.179.

“ILF2_Q12905_37_GGPGGGFRPFVPHIPFDFYLCEMAFPR (UniProt Q12905)”: the “probe-labelled cysteine peptide fold change” value reads like this: (10 µM) -0.0384; (50 µM) 0.234.

“IMPDH2_P12268_468_FVPYLIAGIQHSCQDIGAK (UniProt P12268)”: the “probe-labelled cysteine peptide fold change” value (10 µM) was -0.00921 and the “probe-labelled cysteine peptide fold change” value (50 µM) was found to be 0.0841.

Regarding “IFT27_Q9BW83_149_AWALGQGLECFETSVK (UniProt Q9BW83)”, the “probe-labelled cysteine peptide fold change” value reads like this: (10 µM) -0.0188; (50 µM) 0.129.

Consider “IARS2_Q9NSE4_211_WGIMADWNNCYYTFDGK (UniProt Q9NSE4)”, for which the “probe-labelled cysteine peptide fold change” value is 0.354 (10 µM) and 0.59 (50 µM).

Take “IDH3G_P51553_148_TSLDLYANVIHCK (UniProt P51553)”: the “probe-labelled cysteine peptide fold change” value by setting is: (10 µM) 0.0372; (50 µM) -0.0281.

With “IDE_P14735_257_FHSAYYSSNLMAVCVLGR (UniProt P14735)”, the “probe-labelled cysteine peptide fold change” value (10 µM) was -0.258 and the “probe-labelled cysteine peptide fold change” value (50 µM) was -0.244.

As to “IKZF1_Q13422_71_ACEMNGEECAEDLR (UniProt Q13422)”, the “probe-labelled cysteine peptide fold change” value was -0.412 (10 µM) and -0.304 (50 µM).

“IFT122_Q9HBG6_784_AIEICGDHGWVDMLIDIAR (UniProt Q9HBG6)”: the “probe-labelled cysteine peptide fold change” value (10 µM) worked out at 0.0852 and the “probe-labelled cysteine peptide fold change” value (50 µM) was -0.234.

“IL17RA_Q96F46_469_CDHGKPVGDLFTAAMNMILPDFK (UniProt Q96F46)”: the “probe-labelled cysteine peptide fold change” value reads like this: (10 µM) 0.169; (50 µM) -0.0355.
